# Taken from: PubChem BioAssay AID720505 (Drosophila RNAi Screening Center, 2013)
# Assay: 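Fly regulators or components of the CRAC channel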 (primary screen)
# Cells: Drosophila S2R+ cells
# Reagents: long dsRNA against Drosophila genes
# Challenge: thapsigargin (2 µM) in calcium-free buffer to empty internal stores, then 2 mM calcium added back
# Measurement: 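Fluo-4 signal in 384-well plates read on a FLIPR after thapsigargin (2 µM, calcium-free) store depletion and 2 mM calcium add-back; unnormalised mean endpoint per well; screen run twice, selected wells retested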
# Direction: calcium signal: higher = more calcium entry after store depletion
# Rule for the call: 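About 1500 genes called as lowering calcium entry, by varying amounts, judged against per-plate control wells with STIM1 as positive and Rho1 as negative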
# Calls: active = called as lowering calcium entry; inactive = not called
# The deposit covers about 20,000 reagents; shown is an unselected part of those that have a named target and a result. Of all reagents, about 2,100 (10%) were called active. 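Raw plate signals without normalisation; calls rest on control-based scores that were not deposited; replicate 2 separates called from uncalled poorly.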 A number with no mark means an inactive call. Reagents against one gene are numbered here. Not given: the amount of reagent, the time to read-out.
target gene,dsRNA no.,"calcium signal, replicate 1","calcium signal, replicate 2"
Acbp1,1,156,176
CG3703,1,101,145
CG3703,2,104,151
CG3703,3,118,156
CG13575,1,159,158
CG13575,2,104,88.4
CG32708,1,97.1,78.5
Jig,1,124,120
Yip1d1,1,106,150
Not1,1,167,150
Not1,2,191,131
Cpr72Ec,1,138,82.7
GstE5,1,189,168
SdhBL,1,69.8 (active),63
pncr003:2L (retired record),1,102,170
kel,1,84.1,113
Gr32a,1,203,155
lncRNA:CR32658,1,107,93.9
Trmt61,1,200,130
Slob,1,217,76.7
Slob,2,128,243
toy,1,70.2 (active),99.5
upd3,1,98.2,115
upd3,2,90.8,91
upd3,3,125,249
CtsL2,1,208,159
Pnn,1,148,123
Cyp310a1,1,90.8,111
CG32091,1,57.1,82.6
CG32091,2,59.6,81.9
RhoGAP15B,1,109,155
RhoGAP15B,2,106,137
Iml1,1,186,173
CG13748,1,99.4,103
